According to PubChem BioAssay AID2685 (National Center for Advancing Translational Sciences (NCATS), 2010):
The other results are listed elsewhere or left out. These are further read-outs of the screen, such as a control signal, another cell line or another target. No call is given for them. The list favours compounds with an active or inconclusive main result. The note in brackets gives the kind of curve behind each potency; many fits are weak.

Assay: qHTS Assay for Lipid Storage Modulators in Drosophila S3 Cells;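 for cell number change: cells counted by Cell Tracker Red CMTPX staining in the red channel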
Details: BODIPY lipid droplet fluorescence, 18-24 h; for cell number change: measured here: cell count max response, cells fed with added oleic acid
Procedure, shortened: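 Drosophila S3 cells loaded with oleic acid (400 uM, as added) and compounds at several concentrations; lipid droplets imaged by 488-nm laser-scanning cytometry, 500–530 nm intensity and object ratio to cell channel. Percent activity normalized to 20 uM Triacsin C.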

[1] = measured here: cell number channel AC50, cells fed with added oleic acid
[2] = measured here: lipid fluorescence (Fed channel) AC50, cells fed with added oleic acid

Structure (SMILES): NC(=O)CNC(=O)C1CCN(S(=O)(=O)c2ccc(-n3cnnn3)cc2)CC1
- cell number change: 3.85%

Structure (SMILES): Cn1cc(Br)c(C(=O)NNC(=O)c2ccc(Cl)cc2)n1
- cell number change: 31.1%
- AC50 [1]: 0.116 µM [rising, full curve, poor fit]
- AC50 [2]: 0.116 µM [rising, full curve, poor fit]

Structure (SMILES): CCC(=O)Nc1ccc(C(=O)CSc2nnc(-c3ccc(O)cc3)n2CC2CCCO2)cc1 (stereo not given)
- cell number change: 13.4%

Structure (SMILES): O=C(CN1C(=O)c2ccccc2S1(=O)=O)Nc1ccccn1
- cell number change: 8.03%

Structure (SMILES): CCOC(=O)C1CCN(C(=O)CCN2C(=O)C3C4C=CC(C4)C3C2=O)CC1 (stereo not given)
- cell number change: 19.4%

Structure (SMILES): CCC(=O)NC(=S)Nc1ccc(-c2nc3ccccc3s2)cc1
- AC50 [1]: 1.3 µM [rising, partial curve]
- AC50 [2]: 0.58 µM [rising, single point]

Structure (SMILES): COc1cc(OC)cc(C(=O)NCCOC23CC4CC(CC(C4)C2)C3)c1
- cell number change: -47.2%
- AC50 [1]: 9.2 µM [falling, partial curve, poor fit]
- AC50 [2]: 7.31 µM [falling, partial curve, poor fit]

Structure (SMILES): Cc1cc(NC(=O)CSc2nc3c(C)c(C)ccc3cc2C)no1
- AC50 [1]: 0.184 µM [rising, full curve, poor fit]
- AC50 [2]: 1.16 µM [rising, single point]

Structure (SMILES): COc1ccc(/C(N)=N/OC(=O)c2c(-c3ccccc3Cl)noc2C)cc1OC
- cell number change: -7.51%

Structure (SMILES): CC(Sc1nnnn1C)C(=O)NC(=O)NC1CCCCC1 (stereo not given)
- cell number change: 1.85%

Structure (SMILES): CSc1nnc2c3ccccc3n(Cc3ccccc3)c2n1
- cell number change: -13.5%

Structure (SMILES): COc1ccc(CCNC(=O)c2cc3c(=O)n(C)c4ccccc4c3n2C)cc1OC
- cell number change: -12.6%
- AC50 [2]: 29.1 µM [falling, single point]

Structure (SMILES): NC(=O)c1cc(S(=O)(=O)N2CCCC2)ccc1OCCOc1ccccc1
- cell number change: 7.38%
- AC50 [2]: 6.51 µM [rising, single point]

Structure (SMILES): CC(C(Sc1ccccc1N)c1ccccc1)[N+](=O)[O-] (stereo not given)
- cell number change: -52.1%
- AC50 [1]: 11.6 µM [falling, partial curve]
- AC50 [2]: 18.4 µM [falling, partial curve]

Structure (SMILES): O=C(O)Cn1cc(C(=S)N2CCOCC2)c2ccccc21
- AC50 [2]: 0.259 µM [falling, partial curve, poor fit]

Structure (SMILES): CCOC(=O)c1c(C)n(C)c2ccc(OCC(O)Cn3c(C)nc4ccccc43)cc12 (stereo not given)
- AC50 [1]: 2.31 µM [rising, partial curve]
- AC50 [2]: 2.31 µM [rising, partial curve]

Structure (SMILES): CSc1ccccc1NC(=O)COc1ccc(S(=O)(=O)N2CCCC2)cc1
- AC50 [2]: 0.58 µM [falling, single point]

Structure (SMILES): CC(=O)Nc1cccc(/C(C)=N/NC(=O)c2c(-c3ccccc3Cl)noc2C)c1
- cell number change: -64.9%
- AC50 [1]: 18.4 µM [falling, single point]
- AC50 [2]: 18.4 µM [falling, single point]

Structure (SMILES): CN(CCCC1CCCC1)C(=O)c1cc(COc2c(F)cccc2F)on1
- AC50 [2]: 29.1 µM [falling, partial curve]

Structure (SMILES): COc1cc(C(=O)NNC(=O)c2cc(S(=O)(=O)N(C)C)ccc2N2CCCC2)cc(OC)c1OC
- cell number change: 9.64%

Structure (SMILES): CCC(CC)c1nnc(NC(=O)c2nc3nc(C)cc(C)n3n2)s1
- cell number change: -74.9%
- AC50 [1]: 20.6 µM [falling, single point]
- AC50 [2]: 9.2 µM [falling, partial curve]

Structure (SMILES): CC(=O)c1cccc(NC(=O)N2CCCC2C(=O)NCc2ccc3c(c2)OCO3)c1 (stereo not given)
- cell number change: 4.14%
- AC50 [1]: 2.59 µM [falling, single point]
- AC50 [2]: 3.26 µM [falling, single point]

Structure (SMILES): COc1cc(/C=C(\C#N)C(=O)Nc2cccc(C(=O)O)c2)ccc1OCc1ccc(F)cc1
- cell number change: -22.2%

Structure (SMILES): Cc1cc(OC(=O)c2cccc([N+](=O)[O-])c2)c(C)cc1CN1CCOCC1
- cell number change: -36.2%
- AC50 [1]: 32.6 µM [falling, single point]
- AC50 [2]: 1.03 µM [falling, single point]

Structure (SMILES): COc1ccc(NC(=O)c2cc(C(C)C)on2)c(OC)c1
- AC50 [1]: 3.66 µM [rising, partial curve, poor fit]

Structure (SMILES): CN1C2C=C(N(CCc3ccccc3)C(=O)c3ccc(Cl)cc3)CC1CC2 (stereo not given)
- cell number change: 26.6%
- AC50 [2]: 0.146 µM [rising, full curve, poor fit]

Structure (SMILES): O=C(OCC1OC(n2ccc(=O)[nH]c2=O)C(O)C1OC(=O)c1ccccc1)c1ccccc1 (stereo not given)
- AC50 [2]: 0.82 µM [falling, single point]

Structure (SMILES): C=CCN1C(=O)C2C(C(=O)NC3CCCC3)C3C=CC2(O3)C1C(=O)NC1CCCC1 (stereo not given)
- cell number change: 27.8%
- AC50 [1]: 4.11 µM [rising, full curve, poor fit]

Structure (SMILES): Cc1cc(C)c(NC(=O)CSc2nnc(CNC(=O)c3ccccc3F)o2)c(C)c1
- cell number change: 3.4%
- AC50 [2]: 29.1 µM [rising, single point]

Structure (SMILES): Cc1ccc(-n2c(Cc3cccn3C)nnc2SCC(=O)N2CCc3ccccc32)cc1
- cell number change: 6.69%

Structure (SMILES): CN1CCN(C(=O)c2cc(=O)c3cc(Cl)cc(Cl)c3o2)CC1
- cell number change: 18.3%

Structure (SMILES): Cn1c(Cc2cccs2)n[nH]c1=S
- cell number change: 11%
- AC50 [2]: 0.146 µM [falling, full curve, poor fit]

Structure (SMILES): COc1ccc(OCc2nnc(SCC(=O)N3CCCC3)o2)cc1
- cell number change: 20%

Structure (SMILES): Cn1c(=O)c2c(nc(Br)n2CCCc2ccccc2)n(C)c1=O
- cell number change: -40.8%
- AC50 [1]: 18.4 µM [falling, partial curve]
- AC50 [2]: 16.4 µM [falling, partial curve]

Structure (SMILES): CSc1ccc(-c2nc(CSCC(=O)N3CCOCC3)c(C)o2)cc1
- cell number change: -2.93%
- AC50 [1]: 0.146 µM [falling, full curve, poor fit]

Structure (SMILES): O=C(C1=C(O)C(=O)N(c2nccs2)C1c1ccccc1)c1cc2ccccc2o1 (stereo not given)
- cell number change: 22.2%

Structure (SMILES): Cc1ccccc1-n1c(SCC(=O)N/N=C/C=C/c2ccccc2[N+](=O)[O-])nc2ccccc2c1=O
- cell number change: -5.97%

Structure (SMILES): CS(=O)(=O)Cc1ccc(C(=O)NCC2(N3CCCCC3)CCCCC2)cc1
- cell number change: 25%

Structure (SMILES): Cc1nc2ccc(-c3nc4ccccc4o3)cc2[nH]1
- cell number change: -16.1%
- AC50 [2]: 0.82 µM [falling, full curve, poor fit]

Structure (SMILES): CC(=O)NCc1ccc(C(=O)CSc2nnc(-c3ccncc3)n2Cc2ccccc2)o1
- cell number change: 28.1%
- AC50 [2]: 13 µM [rising, partial curve, poor fit]

Structure (SMILES): O=c1c2ccccc2oc2nc(-c3ccco3)n(Cc3ccccc3)c(=O)c12
- AC50 [1]: 0.92 µM [rising, partial curve]
- AC50 [2]: 0.411 µM [rising, partial curve]

Structure (SMILES): CN(C)S(=O)(=O)Oc1ccc(C(=O)Nc2ccc([N+](=O)[O-])cc2)cc1
- cell number change: 18.7%
- AC50 [2]: 0.651 µM [rising, single point]

Structure (SMILES): CN1C(=O)CC(C(=O)O)SC1=Nc1cccc(C(F)(F)F)c1 (stereo not given)
- cell number change: -23.9%
- AC50 [2]: 29.1 µM [falling, partial curve, poor fit]

Structure (SMILES): CCOC(=O)N1CCC(c2cc(=O)n3[nH]ccc3n2)CC1
- AC50 [2]: 14.6 µM [rising, partial curve]

Structure (SMILES): C[C@@H]1CC=C[C@H]2[C@H]1C(=O)N(Cc1ccccc1)[C@H]2c1ccc(F)c(Br)c1
- cell number change: -68.3%
- AC50 [1]: 29.1 µM [falling, single point]

Structure (SMILES): O=c1c2ccccc2n(CC(O)CN2CCCCC2)c2ccccc12 (stereo not given)
- cell number change: 18.2%
- AC50 [2]: 29.1 µM [falling, single point]

Structure (SMILES): CCOc1cccc(NC(=O)CSc2nncn2N)c1
- cell number change: -18.1%
- AC50 [2]: 0.164 µM [falling, full curve, poor fit]

Structure (SMILES): COc1ccccc1C(=O)NCCc1c(C)[nH]c2c(C)ccc(F)c12
- cell number change: -9.71%
- AC50 [1]: 0.146 µM [falling, full curve, poor fit]
- AC50 [2]: 1.64 µM [rising, partial curve]

Structure (SMILES): COc1cc(-n2c(C)nc3cccnc32)c(Cl)cc1C(=O)O
- cell number change: 7.04%

Structure (SMILES): S=c1[nH]ncc2ccccc12
- cell number change: -2.1%
- AC50 [2]: 4.11 µM [rising, single point]

Structure (SMILES): CCOc1ccccc1NC(=S)NCc1ccco1
- cell number change: 106%
- AC50 [1]: 16.4 µM [rising, partial curve]
- AC50 [2]: 29.1 µM [rising, single point]

Structure (SMILES): Cn1c(=O)c2c(SCC(=O)N3CCOCC3)nc(CC(C)(C)C)nc2n(C)c1=O
- cell number change: -30.4%
- AC50 [1]: 2.31 µM [falling, full curve, poor fit]
- AC50 [2]: 2.31 µM [falling, full curve]

Structure (SMILES): COc1cc(OC)cc(-c2nnc(SCC(=O)N(Cc3ccccc3)C(C)(C)C)o2)c1
- cell number change: -25%
- AC50 [2]: 29.1 µM [falling, single point]

Structure (SMILES): CCn1nnc2cc(C(=O)NCC(c3ccccc3OC)N(C)C)ccc21 (stereo not given)
- cell number change: -17.1%
- AC50 [2]: 35.5 µM [rising, single point]

Structure (SMILES): CCc1ccc(S(=O)(=O)NCc2cn3ccsc3n2)s1
- AC50 [2]: 0.731 µM [rising, single point]

Structure (SMILES): CCn1nnnc1SCC(=O)N1c2ccccc2CCc2ccccc21
- AC50 [2]: 9.2 µM [rising, partial curve]

Structure (SMILES): CCOc1ccc(-c2nc(CSCC(=O)NCC3CCCO3)c(C)o2)cc1 (stereo not given)
- cell number change: -13%
- AC50 [2]: 23.1 µM [rising, single point]

Structure (SMILES): Cc1ccc(N(CC(=O)N2CCCCCC2)S(=O)(=O)c2ccccc2)cc1
- cell number change: 0.87%

Structure (SMILES): Cc1ccc(C(=O)Nc2ccc(S(=O)(=O)N3CCc4ccccc4C3)cc2)o1
- cell number change: -1.49%
- AC50 [2]: 5.8 µM [rising, partial curve]

Structure (SMILES): Cc1cc(C)c2nc(N3CCC(C(=O)N4CCCC4)CC3)sc2c1
- cell number change: -37.1%
- AC50 [1]: 29.1 µM [falling, single point]
- AC50 [2]: 29.1 µM [falling, single point]

Structure (SMILES): CCC1(CC)C(=O)N(C)C(=O)NC1=NCc1ccccc1
- cell number change: -33.2%
- AC50 [1]: 1.64 µM [falling, full curve, poor fit]
- AC50 [2]: 4.61 µM [falling, full curve]
